# Literature values, collected in patent US7179645B2 (priority 2002, dated 2007).
# At least one structure is not confirmed: it was looked up by name or label, or the drawing left a doubt.
# Test system: SKOV3.A2
# Settings: cited from earlier work
smiles,measurement,value
COC1=C2C[C@@H](C)C[C@H](OC)[C@H](O)[C@@H](C)/C=C(\C)[C@H](OC(N)=O)[C@@H](OC)/C=C\C=C(/C)C(=O)NC(=CC1=O)C2=O [geldanamycin],effect on Her-2/neu at the cell surface and its degradation,down-modulated Her-2/neu from the cell surface and promoted its polyubiquitinylation and degradation
